Publication PMC9563079
Results are given in words; binding and its absence hold for the method and conditions named. A result given as binding can be weak or reduced; the word gives no strength. Sequences can lack the tags named with a protein.

Target: ARM7-9-Flag (Flag-labeled ARM7-9 domain of β-catenin)
Test: pull-down; Flag pull-down with purified recombinant Flag-labeled and His-labeled proteins, followed by immunoblotting; both purified

B1: CUEDC2-His (protein, UniProt Q9H467 1-287)
chain: MELERIVSAALLAFVQTHLPEADLSGLDEVIFSYVLGVLEDLGPSGPSEENFDMEAFTEMMEAYVPGFAHIPRGTIGDMMQKLSGQLSDARNKENLQPQSSGVQGQVPISPEPLQRPEMLKEETRSSAAAAADTQDEATGAEEELLPGVDVLLEVFPTCSVEQAQWVLAKARGDLEEAVQMLVEGKEEGPAAWEGPNQDLPRRLRGPQKDELKSFILQKYMMVDSAEDQKIHRPMAPKEAPKKLIRYIDNQVVSTKGERFKDVRNPEAEEMKATYINLKPARKYRFH
binding: binds
